Measured values reported in publication PMC4387713.
These are yes or no findings as the source states them, for the method shown. Binding seen in cells or lysates may run through a third protein. Some entries that bind do so weakly or less than the wild type.

By UniProt entry, the sequences of proteins in these tests, tags left out.
UniProt Q9C005: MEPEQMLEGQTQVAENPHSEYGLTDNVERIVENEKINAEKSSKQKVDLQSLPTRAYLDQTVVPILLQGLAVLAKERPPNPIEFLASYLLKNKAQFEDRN
UniProt Q9H9S0: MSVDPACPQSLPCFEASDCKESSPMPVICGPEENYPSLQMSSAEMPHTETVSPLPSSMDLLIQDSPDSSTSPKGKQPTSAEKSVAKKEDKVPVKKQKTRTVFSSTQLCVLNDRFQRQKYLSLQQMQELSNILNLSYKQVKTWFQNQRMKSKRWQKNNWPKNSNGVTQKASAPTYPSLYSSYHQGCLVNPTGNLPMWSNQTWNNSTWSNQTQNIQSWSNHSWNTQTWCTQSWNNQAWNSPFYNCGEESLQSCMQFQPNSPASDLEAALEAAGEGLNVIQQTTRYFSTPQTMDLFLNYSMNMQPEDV
UniProt Q9UMN6: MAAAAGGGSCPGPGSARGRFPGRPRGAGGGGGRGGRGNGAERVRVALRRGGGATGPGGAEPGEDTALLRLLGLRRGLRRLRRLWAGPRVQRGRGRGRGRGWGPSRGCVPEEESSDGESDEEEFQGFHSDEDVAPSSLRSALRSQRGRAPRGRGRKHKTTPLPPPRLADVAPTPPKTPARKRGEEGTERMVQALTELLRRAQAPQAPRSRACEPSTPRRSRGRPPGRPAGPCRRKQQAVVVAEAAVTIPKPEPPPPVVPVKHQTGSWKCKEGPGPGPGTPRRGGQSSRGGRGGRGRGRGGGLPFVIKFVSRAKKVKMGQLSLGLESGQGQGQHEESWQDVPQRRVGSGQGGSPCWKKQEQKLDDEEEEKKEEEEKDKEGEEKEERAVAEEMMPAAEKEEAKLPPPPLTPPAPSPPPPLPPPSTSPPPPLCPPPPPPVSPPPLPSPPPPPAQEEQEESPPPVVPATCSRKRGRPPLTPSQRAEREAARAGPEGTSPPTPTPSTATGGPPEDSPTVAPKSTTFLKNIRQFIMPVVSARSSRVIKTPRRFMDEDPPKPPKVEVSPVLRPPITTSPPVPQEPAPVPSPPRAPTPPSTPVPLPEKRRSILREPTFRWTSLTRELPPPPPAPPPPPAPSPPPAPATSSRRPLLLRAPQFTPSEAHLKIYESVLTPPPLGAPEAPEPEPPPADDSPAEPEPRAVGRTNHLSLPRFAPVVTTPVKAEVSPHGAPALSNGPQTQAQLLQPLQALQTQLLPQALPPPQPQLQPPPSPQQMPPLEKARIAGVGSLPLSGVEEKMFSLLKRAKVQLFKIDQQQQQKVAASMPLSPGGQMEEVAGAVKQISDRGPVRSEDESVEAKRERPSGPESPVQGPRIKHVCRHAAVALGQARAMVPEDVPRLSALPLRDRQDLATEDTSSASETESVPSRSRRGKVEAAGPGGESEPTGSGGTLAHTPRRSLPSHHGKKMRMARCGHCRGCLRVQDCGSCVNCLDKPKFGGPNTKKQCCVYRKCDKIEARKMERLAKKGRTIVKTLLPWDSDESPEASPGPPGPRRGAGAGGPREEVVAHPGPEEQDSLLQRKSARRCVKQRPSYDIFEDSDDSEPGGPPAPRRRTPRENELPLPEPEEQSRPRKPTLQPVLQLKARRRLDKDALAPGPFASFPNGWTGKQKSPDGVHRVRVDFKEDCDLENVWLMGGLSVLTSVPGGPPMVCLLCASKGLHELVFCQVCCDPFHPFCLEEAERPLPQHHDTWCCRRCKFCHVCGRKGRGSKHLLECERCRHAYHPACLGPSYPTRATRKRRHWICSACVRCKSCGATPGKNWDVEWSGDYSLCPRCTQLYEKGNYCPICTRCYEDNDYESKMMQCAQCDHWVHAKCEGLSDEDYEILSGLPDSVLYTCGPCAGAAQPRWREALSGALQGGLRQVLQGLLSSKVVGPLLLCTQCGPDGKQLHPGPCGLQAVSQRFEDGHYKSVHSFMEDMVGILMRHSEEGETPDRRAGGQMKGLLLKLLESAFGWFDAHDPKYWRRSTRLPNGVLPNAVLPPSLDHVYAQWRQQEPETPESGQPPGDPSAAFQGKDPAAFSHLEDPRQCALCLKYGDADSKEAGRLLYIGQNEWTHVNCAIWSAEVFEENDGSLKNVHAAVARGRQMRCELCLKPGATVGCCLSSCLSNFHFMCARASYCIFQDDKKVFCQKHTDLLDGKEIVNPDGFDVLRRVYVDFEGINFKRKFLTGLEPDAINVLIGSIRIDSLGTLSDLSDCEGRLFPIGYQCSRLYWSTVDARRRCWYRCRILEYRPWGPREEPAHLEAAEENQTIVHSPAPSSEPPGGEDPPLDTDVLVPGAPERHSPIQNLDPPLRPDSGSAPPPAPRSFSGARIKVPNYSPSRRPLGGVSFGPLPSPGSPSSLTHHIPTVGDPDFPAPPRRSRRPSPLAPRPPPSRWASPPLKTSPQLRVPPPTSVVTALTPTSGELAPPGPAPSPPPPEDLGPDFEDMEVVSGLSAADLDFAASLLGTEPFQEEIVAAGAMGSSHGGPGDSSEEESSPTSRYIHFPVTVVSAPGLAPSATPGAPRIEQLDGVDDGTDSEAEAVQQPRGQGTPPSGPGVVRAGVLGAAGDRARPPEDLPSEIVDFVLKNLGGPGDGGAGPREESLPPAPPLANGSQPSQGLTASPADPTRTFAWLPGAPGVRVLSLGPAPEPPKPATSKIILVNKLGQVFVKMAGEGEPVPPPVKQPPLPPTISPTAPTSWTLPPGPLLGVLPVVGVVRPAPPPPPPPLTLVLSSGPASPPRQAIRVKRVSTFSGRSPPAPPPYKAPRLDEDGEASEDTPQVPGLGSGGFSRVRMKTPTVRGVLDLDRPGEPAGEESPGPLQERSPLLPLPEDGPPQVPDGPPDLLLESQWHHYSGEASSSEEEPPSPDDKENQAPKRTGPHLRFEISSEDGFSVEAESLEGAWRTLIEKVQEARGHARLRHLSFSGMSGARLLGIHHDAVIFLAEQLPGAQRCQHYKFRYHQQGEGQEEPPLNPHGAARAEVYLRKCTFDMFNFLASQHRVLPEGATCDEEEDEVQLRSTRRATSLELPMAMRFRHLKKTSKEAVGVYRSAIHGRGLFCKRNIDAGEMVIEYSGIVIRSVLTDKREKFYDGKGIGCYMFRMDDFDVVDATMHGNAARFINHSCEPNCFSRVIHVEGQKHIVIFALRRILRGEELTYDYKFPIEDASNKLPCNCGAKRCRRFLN

Columns and labels:
[1] = target: DPY30 (human (endogenous in H9 hESCs)) (UniProt Q9C005); assay: co-IP; DPY30 or control (IgG) immunoprecipitation from nuclear extracts of hESCs; Western blot; input is 5% of the material; co-immunoprecipitation also done without Activin/Nodal signaling or without NANOG expression (Supplemental Fig. S5D,E: interaction with DPY30 impaired)
[2] = target: NANOG (human (endogenous in H9 hESCs)) (UniProt Q9H9S0); assay: co-IP; co-immunoprecipitation with NANOG from hESCs (Supplemental Fig. S5C); Western blot; endogenous proteins

binding [1]	binding [2]	Substance
binds		NANOG (from UniProt Q9H9S0 1-305)
	binds	DPY30 (from UniProt Q9C005 1-99)
	binds	MLL2/KMT2B (from UniProt Q9UMN6 1-2715) (enzyme)
